For 2 substances, binding results are on record in article PMC4501748.

The chains behind the UniProt entries cited, without tags or fusion partners.
UniProt P58462: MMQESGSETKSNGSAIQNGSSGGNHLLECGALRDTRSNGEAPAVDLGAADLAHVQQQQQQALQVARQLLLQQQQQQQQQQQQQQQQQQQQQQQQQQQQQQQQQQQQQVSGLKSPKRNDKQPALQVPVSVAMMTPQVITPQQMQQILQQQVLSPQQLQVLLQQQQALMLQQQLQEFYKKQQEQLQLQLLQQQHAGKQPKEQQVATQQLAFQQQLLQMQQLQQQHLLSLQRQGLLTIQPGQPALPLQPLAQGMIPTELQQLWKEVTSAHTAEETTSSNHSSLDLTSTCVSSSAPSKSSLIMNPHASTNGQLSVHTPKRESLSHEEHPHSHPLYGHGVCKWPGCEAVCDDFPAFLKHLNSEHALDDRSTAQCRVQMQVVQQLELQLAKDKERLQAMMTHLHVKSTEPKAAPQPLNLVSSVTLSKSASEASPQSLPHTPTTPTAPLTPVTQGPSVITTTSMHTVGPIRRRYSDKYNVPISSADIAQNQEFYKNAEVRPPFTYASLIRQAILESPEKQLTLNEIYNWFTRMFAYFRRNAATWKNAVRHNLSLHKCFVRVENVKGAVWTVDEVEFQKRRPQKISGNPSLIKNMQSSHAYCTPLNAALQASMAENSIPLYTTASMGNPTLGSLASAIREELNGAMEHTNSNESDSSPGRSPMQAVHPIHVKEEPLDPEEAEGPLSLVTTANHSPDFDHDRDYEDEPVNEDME

These are yes or no findings as the source states them, for the method shown. In cells and extracts the contact can be indirect. Some entries that bind do so weakly or less than the wild type.

Test [1] has as its target T1, Thioredoxin-1 (Trx1) (mouse (endogenous in hair follicles)) (UniProt P10639).
T1 sequence: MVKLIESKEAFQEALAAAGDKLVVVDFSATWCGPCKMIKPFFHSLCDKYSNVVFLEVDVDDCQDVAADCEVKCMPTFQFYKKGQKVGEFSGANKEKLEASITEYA
As to the kind of experiment: co-IP; protein lysates of mouse anagen hair follicles; endogenous proteins; immunoprecipitated by anti-Trx1, Foxp1 detected.

Another test addresses T2, Trx1 (UniProt P10639).
T2 sequence: T1 sequence
The test can be described thus: co-IP; HeLa cells transfected with Foxp1-His and Trx1; cell lysates immunoprecipitated by anti-Trx1 antibody and detected by anti-His antibody.

Turning to Foxp1 (from UniProt P58462 1-705), the binding entry in test [1] is “binds”.
Take Foxp1-His (from UniProt P58462 1-705): the binding result in the test with Trx1 is “binds”.
